Median seed-adjusted z-score data for 108 sequences are collected here from PubChem BioAssay AID1347426 (Functional Genomics Laboratory (NCATS/FGL), 2020).

Out of some 31,000 sequences screened, about 1,400 (4.5%) were called active.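 How the source made its calls: active means median seed-adjusted z-score above 1 or below -1; inactive means the rest.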 This is one part of the list.

The nature of this assay: Novel Modifiers of Survival Motor Neuron (SMN) Protein: Gene Identification via Genome-wide siRNA Screen.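 Further: luminescence tracks full-length SMN protein made from the SMN2 reporter.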 The settings on record: HEK293T SMN2-luciferase reporter, siRNA knockdown, 72 h; actives lie on both sides. In outline:
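siRNA screen, 10418 genes ×3 siRNAs; 1 pmol/well, lipid reverse transfection into HEK293T SMN2-luc reporter line. 72 h, 37 °C, 5% CO2; ONE-Glo readout. Data: neg-ctrl normalized, log10, MAD; hit = MAD >1.0 or < -1.0.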
For the sequence CAACUGUUAUCAGAACGAUTT against ARFIP2, the median seed-adjusted z-score was inactive: 0.748.

With GAUUGUGAUGGAGACCGUUTT against IKBKG, the median seed-adjusted z-score was inactive: -0.615. In the case of CAACCACACUAACGAGAUUTT against GLRX, the median seed-adjusted z-score is inactive: -0.0561. For the sequence CGACAGAUAUUACAACGAATT against ROBO3, the median seed-adjusted z-score is inactive: 0.131. Consider GCAUUAUCUUUACAGGCUUTT against SLC22A15, for which the median seed-adjusted z-score is inactive: -0.137.

As for GCUCAGCCCUUACUGUACATT against ZNF569, the median seed-adjusted z-score is inactive: 0.425.

For GCUGUUCCGGCAUUACUAUTT against GPR108, the median seed-adjusted z-score was inactive: 0.369.

Turning to GUGGGACUGUAUUACAACATT against SLC6A19, the median seed-adjusted z-score is inactive: 0.478. On to GAUGUUAGCGAGUACCCAATT against LAMA1, for which the median seed-adjusted z-score was inactive: 0.494.

On to CAAAGGAUUAUGGAACUAATT against UMPS, for which the median seed-adjusted z-score is inactive: 0.191. As for GGAUCUAAACCAUCCAGAUTT against MAP7, the figure is inactive: -0.22.

With GCAAUAGUAUUAUUCUGCUTT against PHTF2, the median seed-adjusted z-score was inactive: 0.389. Consider GAGUGUCAUAUAAACGAAUTT against VLDLR, for which the median seed-adjusted z-score was inactive: 0.0487. As for GGUAUGACAUCGAUAGUGATT against IGSF1, the median seed-adjusted z-score was inactive: 0.258. For the sequence GCCCACUACCAGUUCCUGUTT against DUSP23, the median seed-adjusted z-score was inactive: -0.537. On to GCAUUAUCUCGCCUUAUAATT against ZNF491, for which the median seed-adjusted z-score was inactive: 0.0642.

As to GGAAGAAUUCAAUACGGCATT against FOXJ2, the median seed-adjusted z-score is inactive: -0.627. As for CGGUGCCCAGCAUACUCAATT against NR0B2, the figure is inactive: -0.374; as for GUGUUUAAGGGCUUUUGAATT against CBR3, inactive: 0.057. As to CCAGCAAGCAAUUUCCUAUTT against OLR1, the median seed-adjusted z-score was inactive: 0. As for GCUUGUUUGAGGAAGCAGATT against ADSSL1, the median seed-adjusted z-score was inactive: 0.0976. For CCAUGGAUAUUGACCAUAUTT against SEC14L3, the median seed-adjusted z-score is inactive: 0.308. Take CUGUGACUUUUAUGCGAAATT against LIMS3: the median seed-adjusted z-score is inactive: -0.078.

In the case of AAGACUAUGCUGAACCGAATT against DCXR, the median seed-adjusted z-score is inactive: -0.394. As for UCACCUCUCUGAGUAGCUUTT against ACTRT2, the median seed-adjusted z-score was inactive: -0.117.

Regarding CGUGGAUUCUGCUAAGGGATT against MLKL, the median seed-adjusted z-score is inactive: 0.

As for GGCCUUUACAGUGCUCCAATT against ZFP14, the median seed-adjusted z-score was inactive: 0.263. On to GCAGAGAUUUCUUGACGUATT against ZFPM2, for which the median seed-adjusted z-score was inactive: 0.087.

As to GGAACAGUCCUGUUGCAUATT against SLC24A1, the median seed-adjusted z-score was inactive: 0.372. As for CGGUCAUCUCAGCCGAGAATT against TUBA3C, the figure is inactive: -0.0806.

CCACCUUCAUUCUCAACUUTT against NFKB1: the median seed-adjusted z-score is inactive: 0.31. Regarding UCAUGCUCAUUGGGAAUAATT against RAB2B, the median seed-adjusted z-score is inactive: 0.882. Consider CCAACAUAGAACUCGCGGATT against PIGK, for which the median seed-adjusted z-score was inactive: -0.456. The same measure for AGGCCUAUAUUGAAGGAGATT against DGKG: inactive: 0.227. Consider GCAGUGAGAUCGAUAGCAATT against CTNND2, for which the median seed-adjusted z-score was inactive: -0.0491. Turning to GCACCAAUGUAGACAUUGUTT against ZFY, the median seed-adjusted z-score is inactive: -0.128. In the case of GAGAUUUGUUUACACGCUUTT against RPS6KA3, the median seed-adjusted z-score was inactive: -0.0233.

As for GAAUAGAGGAUAUCCUUGATT against KYNU, the median seed-adjusted z-score was inactive: 0.00735. For UGGACAUGAUCAAAAAUAATT against COL6A1, the median seed-adjusted z-score is inactive: 0.509.

For the sequence CCGUCUUCAUUUUGUCAGATT against ATP2C2, the median seed-adjusted z-score is inactive: -0.302. On to UGAUGACAAAGACGGCAAATT against THOC3, for which the median seed-adjusted z-score was inactive: 0.689. For the sequence GGAUGUUGAUGAAGGCAAATT against LDHAL6A, the median seed-adjusted z-score was inactive: -0.15. As for GGUCAAAGAGUUAUAGAUUTT against MKKS, the median seed-adjusted z-score is active: 1.03.

Take GCUUAGAUCACAUAGCAGATT against FBXW11: the median seed-adjusted z-score is inactive: 0.206. Regarding GGCGAGAAAUUGUCCUAUUTT against NKX2-3, the median seed-adjusted z-score was inactive: -0.2. As for GGAGGAUAUUAGUAAAACUTT against PCDHB16, the median seed-adjusted z-score was inactive: -0.523. On to GCUUUGUGAGUUACGAAAATT against PABPC4, for which the median seed-adjusted z-score is inactive: -0.42. CAUGGACCCUGAUGACAUATT against UROD: the median seed-adjusted z-score was active: 1.11. For the sequence GCCUCUUCUCGUCACCCAATT against KCNF1, the median seed-adjusted z-score was inactive: -0.19. CAGCAGACCUGAUGACUUATT against GNG3: the median seed-adjusted z-score was inactive: -0.186. The same measure for CACCUGCCAGUGUUAUUUATT against CRIP2: inactive: -0.226; for GAGAGACCGUCACACUGAATT against GRIP2: inactive: -0.0256; for GUAAUUAUCUUCCAUGAAATT against KRT37: inactive: 0.0484. GAUUCUUGAUGCUAUCGAUTT against ARSF: the median seed-adjusted z-score was inactive: 0.111. The same measure for CACCAGAGCUUGAUCGUCUTT against CYB5R4: inactive: 0; for GCUGAAAUCAAAAAGCGGATT against RAB1B: active: 1.55. The same measure for GGAUAUCUUCUGCGACAAUTT against CRTAC1: inactive: 0.113. As for GCUCCUUACCUGAUGUUGATT against HERC4, the median seed-adjusted z-score is inactive: 0.00343. GCCGGAAGAUGUGAAGAGATT against PMPCA: the median seed-adjusted z-score was inactive: -0.985. As to CAUUCAAAUUUACCCUGUATT against POLR2H, the median seed-adjusted z-score is active: -2.74. Regarding CAAGGCAGCUCUACACUCATT against SPHK2, the median seed-adjusted z-score is inactive: 0. In the case of CAAUGUCGAUGAGCUGUUUTT against GYG2, the median seed-adjusted z-score was inactive: 0.113. With GACUUGGAAGGGUUUAAGATT against ABCD4, the median seed-adjusted z-score is inactive: -0.114. Take GGAUGGUCUUUUAGUAAGATT against CBR4: the median seed-adjusted z-score is inactive: -0.66.

Regarding AGACCGCACUGACAGAGGATT against BAIAP2, the median seed-adjusted z-score was inactive: -0.0497. With CAACAAAUCAAAAGUGAGATT against EFCAB4B, the median seed-adjusted z-score was inactive: 0. As to UUACACCGUUUGUUAAUAATT against NAT14, the median seed-adjusted z-score is inactive: -0.283. As for GCAAUUUACUUUCAAGGUATT against SYT1, the figure is inactive: 0.435; as for GAACAAUGGUGGAUCCAAATT against PARVA, inactive: 0.0852; as for CAACCACUUUGAGACCUAUTT against WFIKKN2, inactive: -0.353. As for UCUACGACGUGGACGGUAATT against RCVRN, the median seed-adjusted z-score was inactive: 0.562.

In the case of AGAGCCUAAUGGACAGUGATT against DHRS3, the median seed-adjusted z-score was inactive: 0.175.

On to GCUUUCAGCUGAACGAACUTT against LTF, for which the median seed-adjusted z-score was inactive: 0.236. Turning to GCUGAGUCCUUCUUCCAUATT against XYLT1, the median seed-adjusted z-score is inactive: -0.274.

For CGAGUGUAUGAAGAACGAATT against LAMC1, the median seed-adjusted z-score was inactive: 0.0473. In the case of GGAAAGUUAUCAGGAUGCATT against SAG, the median seed-adjusted z-score was inactive: 0.

Turning to CGUGGUCAGUUUGAACGAATT against TTLL4, the median seed-adjusted z-score is inactive: -0.256. The same measure for CGACAUUCAGUUUACCUUATT against SOX17: inactive: -0.46; for GAGUUCCCAUCUUCAAGUUTT against ZNF45: inactive: 0.172; for GGUGACAGAUUGACUGGGATT against CRADD: inactive: -0.255. As to GAAUAAGCCGUGUACUGAUTT against CASD1, the median seed-adjusted z-score was inactive: 0.202.

On to GAACCGCCCUCCUGAUUAATT against WNT3A, for which the median seed-adjusted z-score was inactive: -0.66. With CAAUAUCGAUGAGGAUUUUTT against MPP3, the median seed-adjusted z-score is inactive: 0. The same measure for GUCCAAAUACAGUCUCUUATT against MAP3K14: inactive: -0.0609; for GCGUGGUGUUGCUAACCUUTT against CCL22: inactive: 0. GAACCUCCGCAGAGACAAATT against EIF3D: the median seed-adjusted z-score is inactive: 0.104. Take AGAUCUACCAGAAGAUUGATT against EHD1: the median seed-adjusted z-score is inactive: -0.616.

In the case of GCAUCCGUGUCAUUCUGGATT against SLC3A2, the median seed-adjusted z-score is inactive: -0.0428.

Turning to CCAAGGUCUCAUCUUCGUATT against ARF6, the median seed-adjusted z-score is inactive: -0.805. As for GGGAGAUCGUCAUCCGAGATT against PHKG1, the median seed-adjusted z-score was inactive: -0.153.

On to CUCUUUACUUGAACGAGAATT against TSC22D2, for which the median seed-adjusted z-score is inactive: 0.

Regarding GGCUAUCUACAAAAUGGUATT against VSNL1, the median seed-adjusted z-score was inactive: 0.0569.

As for ACAGACCUGAUAUCCAGAATT against MECR, the median seed-adjusted z-score is inactive: 0.0339. On to GAAUUGGAAUGUGAGGAUATT against ZNF622, for which the median seed-adjusted z-score is inactive: -0.462. The same measure for AGAUGGAAGUCGCAUUGUATT against RAB40A: inactive: 0; for GACUAUAUCUCCAGAUUAUTT against FKBP1A: inactive: 0.113. The same measure for UGAUUAUCAUCACAGCAGATT against THAP1: inactive: 0.139. With CAAACGAUCUGAAGGUGAATT against AKTIP, the median seed-adjusted z-score was inactive: -0.194. On to CAAUAACCAUGAACUUCGATT against B3GALNT2, for which the median seed-adjusted z-score was inactive: -0.227. Consider CAACAAUAUCAUAAGGAAATT against PSPC1, for which the median seed-adjusted z-score is inactive: 0.0612.

As for GACAGAAGGUAGUAGGAUUTT against SEMA4D, the median seed-adjusted z-score is inactive: 0.309.

Take GGCUUAUUUGAAUACGUAATT against SRD5A1: the median seed-adjusted z-score is inactive: 0.0945. As for GAGAGUUUAUGUUCGAGAATT against MCF2, the median seed-adjusted z-score was inactive: 0.51. Regarding GCAUUACAAGAUCCGCAAATT against FGR, the median seed-adjusted z-score was inactive: 0.596. Consider ACUAGCUGCUGGACAUGAATT against GJA1, for which the median seed-adjusted z-score is inactive: 0.348. The same measure for CGAUUAUACUUUGACGACATT against ETV5: inactive: 0.0756; for CAAAAGCAGUUCGACAAAATT against ALDH1A3: inactive: 0.228. For GGACGAGACUCAGAGUCAUTT against CD93, the median seed-adjusted z-score was inactive: -0.0879.
